Article doi:10.1101/162271

The chains behind the UniProt entries cited, without tags or fusion partners.
UniProt Q9SQI2: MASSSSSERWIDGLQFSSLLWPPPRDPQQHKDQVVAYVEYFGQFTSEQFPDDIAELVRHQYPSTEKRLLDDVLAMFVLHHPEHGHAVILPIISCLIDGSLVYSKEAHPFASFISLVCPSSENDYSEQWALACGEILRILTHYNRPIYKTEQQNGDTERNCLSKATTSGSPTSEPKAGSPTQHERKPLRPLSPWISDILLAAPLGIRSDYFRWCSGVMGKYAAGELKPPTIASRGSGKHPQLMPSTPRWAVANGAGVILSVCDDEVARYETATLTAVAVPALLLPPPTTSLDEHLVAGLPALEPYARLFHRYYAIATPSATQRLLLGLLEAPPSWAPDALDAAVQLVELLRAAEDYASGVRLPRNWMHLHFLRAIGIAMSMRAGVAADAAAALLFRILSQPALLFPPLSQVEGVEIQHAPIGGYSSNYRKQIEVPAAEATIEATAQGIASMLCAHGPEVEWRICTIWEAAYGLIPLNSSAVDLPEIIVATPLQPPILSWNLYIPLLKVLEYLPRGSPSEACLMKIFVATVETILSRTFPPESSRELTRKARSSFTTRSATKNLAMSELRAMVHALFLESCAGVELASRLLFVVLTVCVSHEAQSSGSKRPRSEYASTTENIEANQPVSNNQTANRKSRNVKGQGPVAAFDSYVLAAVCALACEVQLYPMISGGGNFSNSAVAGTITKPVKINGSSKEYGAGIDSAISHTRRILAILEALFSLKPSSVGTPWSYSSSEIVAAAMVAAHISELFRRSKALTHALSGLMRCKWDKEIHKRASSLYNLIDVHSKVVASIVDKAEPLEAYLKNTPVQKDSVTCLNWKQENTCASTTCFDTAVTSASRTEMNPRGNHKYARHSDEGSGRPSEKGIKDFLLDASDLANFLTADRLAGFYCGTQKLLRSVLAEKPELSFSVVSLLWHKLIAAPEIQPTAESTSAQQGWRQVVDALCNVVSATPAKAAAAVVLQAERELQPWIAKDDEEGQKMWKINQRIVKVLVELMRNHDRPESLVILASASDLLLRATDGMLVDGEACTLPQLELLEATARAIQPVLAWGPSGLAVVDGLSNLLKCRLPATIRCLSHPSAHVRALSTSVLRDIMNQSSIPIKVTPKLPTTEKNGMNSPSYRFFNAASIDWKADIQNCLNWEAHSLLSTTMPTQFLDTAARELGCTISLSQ
UniProt O24456: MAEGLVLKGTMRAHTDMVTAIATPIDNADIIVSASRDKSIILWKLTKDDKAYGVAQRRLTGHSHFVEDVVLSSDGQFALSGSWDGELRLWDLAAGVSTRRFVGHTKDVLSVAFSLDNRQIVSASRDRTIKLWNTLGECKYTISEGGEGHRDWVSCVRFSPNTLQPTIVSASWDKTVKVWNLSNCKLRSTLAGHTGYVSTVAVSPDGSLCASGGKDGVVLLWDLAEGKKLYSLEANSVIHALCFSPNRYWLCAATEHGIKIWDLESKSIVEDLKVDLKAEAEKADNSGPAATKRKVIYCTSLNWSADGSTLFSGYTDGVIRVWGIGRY
UniProt Q9C4Z6: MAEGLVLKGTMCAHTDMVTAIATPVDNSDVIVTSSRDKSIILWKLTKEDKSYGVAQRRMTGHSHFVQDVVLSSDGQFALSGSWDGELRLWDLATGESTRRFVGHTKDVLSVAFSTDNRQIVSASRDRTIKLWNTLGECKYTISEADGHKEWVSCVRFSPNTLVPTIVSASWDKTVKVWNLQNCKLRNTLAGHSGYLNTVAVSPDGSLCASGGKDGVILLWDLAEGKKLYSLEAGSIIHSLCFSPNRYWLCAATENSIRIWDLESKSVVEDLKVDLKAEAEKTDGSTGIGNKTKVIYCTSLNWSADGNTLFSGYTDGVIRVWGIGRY
UniProt P22953: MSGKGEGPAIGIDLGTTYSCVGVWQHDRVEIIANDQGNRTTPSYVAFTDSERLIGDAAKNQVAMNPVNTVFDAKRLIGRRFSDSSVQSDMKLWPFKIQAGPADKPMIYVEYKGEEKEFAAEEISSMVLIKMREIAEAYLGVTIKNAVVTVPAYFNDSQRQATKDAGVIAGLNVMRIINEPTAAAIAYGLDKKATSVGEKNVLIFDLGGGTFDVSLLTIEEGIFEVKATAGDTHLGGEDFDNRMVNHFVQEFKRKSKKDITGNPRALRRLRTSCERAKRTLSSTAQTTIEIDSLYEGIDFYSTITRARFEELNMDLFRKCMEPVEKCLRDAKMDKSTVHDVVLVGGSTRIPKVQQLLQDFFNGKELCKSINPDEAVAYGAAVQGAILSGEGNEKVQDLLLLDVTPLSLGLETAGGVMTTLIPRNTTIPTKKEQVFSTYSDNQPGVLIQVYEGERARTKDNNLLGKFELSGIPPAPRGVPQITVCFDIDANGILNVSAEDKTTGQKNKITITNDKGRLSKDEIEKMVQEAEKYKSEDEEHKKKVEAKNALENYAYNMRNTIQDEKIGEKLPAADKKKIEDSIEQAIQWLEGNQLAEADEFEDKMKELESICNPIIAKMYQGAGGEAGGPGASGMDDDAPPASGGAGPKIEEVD
UniProt Q9M888: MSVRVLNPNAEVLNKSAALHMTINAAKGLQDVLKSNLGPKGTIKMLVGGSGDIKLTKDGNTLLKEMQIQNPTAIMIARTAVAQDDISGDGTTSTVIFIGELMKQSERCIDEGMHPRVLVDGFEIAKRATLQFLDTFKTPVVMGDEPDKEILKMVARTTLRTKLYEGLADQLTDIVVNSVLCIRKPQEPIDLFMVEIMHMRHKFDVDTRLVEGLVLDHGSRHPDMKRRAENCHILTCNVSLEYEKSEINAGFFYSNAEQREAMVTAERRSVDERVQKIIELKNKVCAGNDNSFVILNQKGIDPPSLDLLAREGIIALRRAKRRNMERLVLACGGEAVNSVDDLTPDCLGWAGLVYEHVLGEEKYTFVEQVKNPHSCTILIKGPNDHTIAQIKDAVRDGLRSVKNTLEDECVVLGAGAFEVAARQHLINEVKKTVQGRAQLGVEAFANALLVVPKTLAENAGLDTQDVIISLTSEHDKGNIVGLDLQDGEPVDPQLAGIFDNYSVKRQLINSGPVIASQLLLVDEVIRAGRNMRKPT
UniProt Q9CAI7: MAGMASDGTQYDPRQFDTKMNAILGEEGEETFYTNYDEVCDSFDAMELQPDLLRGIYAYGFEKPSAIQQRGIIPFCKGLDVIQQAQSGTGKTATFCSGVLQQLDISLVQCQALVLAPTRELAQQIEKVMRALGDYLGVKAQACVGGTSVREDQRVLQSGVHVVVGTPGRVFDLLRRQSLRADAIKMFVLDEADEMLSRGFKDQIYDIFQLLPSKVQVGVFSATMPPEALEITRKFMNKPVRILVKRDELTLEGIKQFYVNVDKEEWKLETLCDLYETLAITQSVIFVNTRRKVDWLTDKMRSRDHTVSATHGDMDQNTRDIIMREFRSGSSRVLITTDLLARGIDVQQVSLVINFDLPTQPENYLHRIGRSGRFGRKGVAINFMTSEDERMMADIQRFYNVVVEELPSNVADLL

B1: ubiquitin-specific protease 12 (enzyme, UniProt Q9FPT1 1-1116)
chain: MTMMTPPPVDQPEDEEMLVPNSDLVDGPAQPMEVTQPETAASTVENQPAEDPPTLKFTWTIPNFSRQNTRKHYSDVFVVGGYKWRILIFPKGNNVDHLSMYLDVSDAASLPYGWSRYAQFSLAVVNQIHTRYTVRKETQHQFNARESDWGFTSFMPLSELYDPSRGYLVNDTVLVEAEVAVRKVLDYWSYDSKKETGFVGLKNQGATCYMNSLLQTLYHIPYFRKAVYHMPTTENDAPTASIPLALQSLFYKLQYNDTSVATKELTKSFGWDTYDSFMQHDVQELNRVLCEKLEDKMKGTVVEGTIQQLFEGHHMNYIECINVDFKSTRKESFYDLQLDVKGCKDVYASFDKYVEVERLEGDNKYHAEGHGLQDAKKGVLFIDFPPVLQLQLKRFEYDFMRDTMVKINDRYEFPLELDLDREDGKYLSPDADRSVRNLYTLHSVLVHSGGVHGGHYYAFIRPTLSDQWYKFDDERVTKEDLKRALEEQYGGEEELPQTNPGFNNNPPFKFTKYSNAYMLVYIRESDKDKIICNVDEKDIAEHLRVRLKKEQEEKEDKRRYKAQAHLYTIIKVARDEDLKEQIGKDIYFDLVDHDKVRSFRIQKQTPFQQFKEEVAKEFGVPVQLQRFWIWAKRQNHTYRPNRPLTPQEELQPVGQIREASNKANTAELKLFLEVEHLDLRPIPPPEKSKEDILLFFKLYDPEKAVLSYAGRLMVKSSSKPMDITGKLNEMVGFAPDEEIELFEEIKFEPCVMCEHLDKKTSFRLCQIEDGDIICFQKPLVNKEIECLYPAVPSFLEYVQNRQLVRFRALEKPKEDEFVLELSKQHTYDDVVEKVAEKLGLDDPSKLRLTSHNCYSQQPKPQPIKYRGVDHLSDMLVHYNQTSDILYYEVLDIPLPELQGLKTLKVAFHHATKEEVVIHNIRLPKQSTVGDVINELKTKVELSHPDAELRLLEVFYHKIYKIFPSTERIENINDQYWTLRAEEIPEEEKNIGPNDRLILVYHFAKETGQNQQVQNFGEPFFLVIHEGETLEEIKNRIQKKLHVSDEDFAKWKFAFMSMGRPEYLQDTDVVYNRFQRRDVYGAFEQYLGLEHADTTPKRAYAANQNRHAYEKPVKIYN
B2: ubiquitin-specific protease 13 (enzyme, UniProt Q84WU2 1-1115)
chain: MTMMTPPPLDQQEDEEMLVPNPDLVEGPQPMEVAQTDPAATAVENPPPEDPPSLKFTWTIPMFTRLNTRKHYSDVFVVGGYKWRILIFPKGNNVDHLSMYLDVADAANLPYGWSRYSQFSLAVVNQVNNRYSIRKETQHQFNARESDWGFTSFMPLSELYEPTRGYLVNDTVLIEAEVAVRKVLDYWSYDSKKETGFVGLKNQGATCYMNSLLQTLYHIPYFRKAVYHMPTTENDAPTASIPLALQSLFYKLQYNDTSVATKELTKSFGWDTYDSFMQHDVQELNRVLCEKLEDKMKGTVVEGTIQKLFEGHHMNYIECINVDYKSTRKESFYDLQLDVKGCKDVYASFDKYVEVERLEGDNKYHAEGHDLQDAKKGVLFIDFPPVLQLQLKRFEYDFMRDTMVKINDRYEFPLQLDLDREDGRYLSPDADKSVRNLYTLHSVLVHSGGVHGGHYYAFIRPTLSDQWYKFDDERVTKEDVKRALEEQYGGEEELPQNNPGFNNPPFKFTKYSNAYMLVYIRESDKDKIICNVDEKDIAEHLRVRLKKEQEEKEDKRKYKAQAHLFTTIKVARDDDITEQIGKNIYFDLVDHEKVRSFRIQKQTPFQQFKEEVAKEFGVPVQLQRFWIWAKRQNHTYRPNRPLSPNEELQTVGQIREASNKANNAELKLFLEIERGPDDLPIPPPEKTSEDILLFFKLYDPENAVLRYVGRLMVKSSSKPMDIVGQLNKMAGFAPDEEIELFEEIKFEPCVMCEQIDKKTSFRLCQIEDGDIICYQKPLSIEESEFRYPDVPSFLEYVQNRELVRFRTLEKPKEDEFTMELSKLHTYDDVVERVAEKLGLDDPSKLRLTSHNCYSQQPKPQPIKYRGVDHLSDMLVHYNQTSDILYYEVLDIPLPELQGLKTLKVAFHSATKDEVIIHNIRLPKQSTVGDVINELKTKVELSHQDAELRLLEVFFHKIYKIFPSTERIENINDQYWTLRAEEIPEEEKNIGPNDRLIHVYHFTKEAGQNQQVQNFGEPFFLVIHEGETLEEIKTRIQKKLHVPDEDFAKWKFASFSMGRPDYLLDTDVVYNRFQRRDVYGAWEQYLGLEHIDNAPKRAYAANQNRHAYEKPVKIYN
B3: Cpn60 chaperonin family protein At1g24510 (protein, UniProt O04450 1-535)
chain: MALAFDEFGRPFIILREQDQKTRLRGIDAQKANIAAGKAVARILRSSLGPKGMDKMLQGPDGDITITNDGATILEQMDVDNQIAKLMVELSRSQDYEIGDGTTGVVVMAGALLEQAERQLDRGIHPIRIAEGYEMASRVAVEHLERIAQKFEFDVNNYEPLVQTCMTTLSSKIVNRCKRSLAEIAVKAVLAVADLERRDVNLDLIKVEGKVGGKLEDTELIYGILIDKDMSHPQMPKQIEDAHIAILTCPFEPPKPKTKHKVDIDTVEKFETLRKQEQQYFDEMVQKCKDVGATLVICQWGFDDEANHLLMHRNLPAVRWVGGVELELIAIATGGRIVPRFQELTPEKLGKAGVVREKSFGTTKERMLYIEHCANSKAVTVFIRGGNKMMIEETKRSIHDALCVARNLIRNKSIVYGGGAAEIACSLAVDAAADKYPGVEQYAIRAFAEALDSVPMALAENSGLQPIETLSAVKSQQIKENIPFYGIDCNDVGTNDMREQNVFETLIGKQQQILLATQVVKMILKIDDVISNSEY
B4: Cpn60 chaperonin family protein At3g18190 (protein, UniProt Q9LV21 1-536)
chain: MAAVAAPMASKPRGSKAESFVDNKRREDIRFANINSARAVSDAVRTSLGPKGMDKMISTANGEVIITNDGATILNKMEVLQPAAKMLVELSKSQDSAAGDGTTTVVVIAGALLKECQSLLTNGIHPTVISDSLHKACGKAIDILTAMAVPVELTDRDSLVKSASTSLNSKVVSQYSTLLAPLAVDAVLSVIDPEKPEIVDLRDIKIVKKLGGTVDDTHTVKGLVFDKKVSRAAGGPTRVENAKIAVIQFQISPPKTDIEQSIVVSDYTQMDRILKEERNYILGMIKKIKATGCNVLLIQKSILRDAVTDLSLHYLAKAKIMVIKDVERDEIEFVTKTLNCLPIANIEHFRAEKLGHADLVEEASLGDGKILKITGIKDMGRTTSVLVRGSNQLVLDEAERSLHDALCVVRCLVSKRFLIAGGGAPEIELSRQLGAWAKVLHGMEGYCVKSFAEALEVIPYTLAENAGLNPIAIVTELRNKHAQGEINAGINVRKGQITNILEENVVQPLLVSTSAITLATECVRMILKIDDIVTVR
B5: CYCLING DOF FACTOR 6 (endogenous) (protein, UniProt Q9LQX4 1-366)
chain: MSQVRDTPVKLFGWTITPVSHDPYSSSSHVLPDSSSSSSSSSLSLRPHMMNNQSVTDNTSLKLSSNLNNESKETSENSDDQHSEITTITSEEEKTTELKKPDKILPCPRCNSADTKFCYYNNYNVNQPRHFCRKCQRYWTAGGSMRIVPVGSGRRKNKGWVSSDQYLHITSEDTDNYNSSSTKILSFESSDSLVTERPKHQSNEVKINAEPVSQEPNNFQGLLPPQASPVSPPWPYQYPPNPSFYHMPVYWGCAIPVWSTLDTSTCLGKRTRDETSHETVKESKNAFERTSLLLESQSIKNETSMATNNHVWYPVPMTREKTQEFSFFSNGAETKSSNNRFVPETYLNLQANPAAMARSMNFRESI
B6: 14-3-3λ protein (protein, UniProt P48349 1-248)
chain: MAATLGRDQYVYMAKLAEQAERYEEMVQFMEQLVTGATPAEELTVEERNLLSVAYKNVIGSLRAAWRIVSSIEQKEESRKNDEHVSLVKDYRSKVESELSSVCSGILKLLDSHLIPSAGASESKVFYLKMKGDYHRYMAEFKSGDERKTAAEDTMLAYKAAQDIAAADMAPTHPIRLGLALNFSVFYYEILNSSDKACNMAKQAFEEAIAELDTLGEESYKDSTLIMQLLRDNLTLWTSDMQEQMDEA

target: 3xFlag-, 6xHis-tagged GIGANTEA protein (GI:3F6H) (Arabidopsis thaliana) (UniProt Q9SQI2); test: affinity purification with mass spectrometry

binding, binds:
TPR4 (from UniProt Q8VZ31), RACK1A (from UniProt O24456 1-327), RACK1B (from UniProt Q9C4Z6 1-326), Hsp70 family protein At5g02500 (from UniProt P22953 1-651), Cpn60 chaperonin family protein At3g02530 (from UniProt Q9M888 1-535), translation factor At1g72730 (from UniProt Q9CAI7 1-414)

target: 3xFlag-, 6xHis-tagged GIGANTEA protein (GI:3F6H) (Arabidopsis thaliana) (UniProt Q9SQI2); test: affinity purification with mass spectrometry; remark: another data set of the same source

binding, binds:
B1, B2, B3, B4

target: 3xFlag-, 6xHis-tagged GIGANTEA protein (GI:3F6H) (Arabidopsis thaliana) (UniProt Q9SQI2); test: affinity purification with mass spectrometry; remark: another data set of the same source

binding, binds:
B1, B2, B5, B6

These are yes or no findings as the source states them, for the method shown. Binding seen in cells or lysates may run through a third protein. These calls come from enrichment with a bait or labelling near it, and not all partners need be listed.
